Laboratory results published in patent US20160068592A1 (SEOUL NATIONAL UNIVERSITY R AND DB FOUNDATION, published 2016).
No constants are given. Whether binding was seen depends on the method and setting. Some entries that bind do so weakly or less than the wild type.

Chains of the proteins cited; added tags and fusions are not shown. Lines headed by an entry give the natural chain unless they say otherwise; changes in a name come on top.
UniProt P01031: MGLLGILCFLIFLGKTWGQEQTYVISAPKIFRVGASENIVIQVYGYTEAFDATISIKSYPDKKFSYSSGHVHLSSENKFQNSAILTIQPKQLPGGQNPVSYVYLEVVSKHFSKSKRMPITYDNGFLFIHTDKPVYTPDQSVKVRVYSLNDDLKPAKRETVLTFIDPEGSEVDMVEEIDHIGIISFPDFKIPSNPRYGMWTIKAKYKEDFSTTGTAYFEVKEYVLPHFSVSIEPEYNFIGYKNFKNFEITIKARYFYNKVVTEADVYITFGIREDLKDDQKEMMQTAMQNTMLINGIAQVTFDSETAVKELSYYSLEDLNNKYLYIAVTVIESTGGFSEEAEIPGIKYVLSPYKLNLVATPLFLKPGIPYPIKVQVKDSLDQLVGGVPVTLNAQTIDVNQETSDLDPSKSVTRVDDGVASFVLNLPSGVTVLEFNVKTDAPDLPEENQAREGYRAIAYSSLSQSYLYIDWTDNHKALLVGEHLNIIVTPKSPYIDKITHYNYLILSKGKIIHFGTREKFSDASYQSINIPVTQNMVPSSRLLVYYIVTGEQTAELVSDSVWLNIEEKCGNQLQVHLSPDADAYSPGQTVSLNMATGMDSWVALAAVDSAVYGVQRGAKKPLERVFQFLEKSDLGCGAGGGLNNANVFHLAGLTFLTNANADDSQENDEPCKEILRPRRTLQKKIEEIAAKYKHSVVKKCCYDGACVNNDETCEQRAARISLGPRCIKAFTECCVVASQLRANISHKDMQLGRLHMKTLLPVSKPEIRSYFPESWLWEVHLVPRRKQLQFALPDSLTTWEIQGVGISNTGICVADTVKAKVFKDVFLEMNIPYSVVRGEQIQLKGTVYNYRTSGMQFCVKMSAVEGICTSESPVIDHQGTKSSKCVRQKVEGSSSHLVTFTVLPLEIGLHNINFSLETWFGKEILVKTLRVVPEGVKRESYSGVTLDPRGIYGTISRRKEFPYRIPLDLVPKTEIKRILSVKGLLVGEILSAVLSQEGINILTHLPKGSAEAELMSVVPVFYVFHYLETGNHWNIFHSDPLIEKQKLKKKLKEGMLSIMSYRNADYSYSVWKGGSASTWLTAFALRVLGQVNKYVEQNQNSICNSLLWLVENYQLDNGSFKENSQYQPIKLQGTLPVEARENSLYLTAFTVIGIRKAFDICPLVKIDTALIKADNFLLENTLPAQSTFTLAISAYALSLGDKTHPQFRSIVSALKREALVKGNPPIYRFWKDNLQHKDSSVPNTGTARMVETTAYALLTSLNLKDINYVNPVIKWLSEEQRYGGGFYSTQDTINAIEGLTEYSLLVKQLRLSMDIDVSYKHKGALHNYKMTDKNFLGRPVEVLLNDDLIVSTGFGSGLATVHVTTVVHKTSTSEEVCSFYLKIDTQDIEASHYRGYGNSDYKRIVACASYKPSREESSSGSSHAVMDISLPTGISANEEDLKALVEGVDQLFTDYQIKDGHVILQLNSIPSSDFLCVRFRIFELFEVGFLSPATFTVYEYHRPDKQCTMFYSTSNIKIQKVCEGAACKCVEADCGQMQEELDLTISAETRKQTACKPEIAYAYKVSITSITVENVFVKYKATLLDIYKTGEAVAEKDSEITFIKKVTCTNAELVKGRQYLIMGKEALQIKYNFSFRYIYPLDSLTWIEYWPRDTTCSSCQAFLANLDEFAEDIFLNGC

Legend:
[1] = biological target: MG1-4 Fc fusion protein (human) (UniProt P01031); assay: immunoblot (FIG. 11 legend)
[2] = biological target: MG1-5 Fc fusion protein (human) (UniProt P01031); assay: immunoblot (FIG. 11 legend)
[3] = biological target: MG1-4 Fc fusion protein (human) (UniProt P01031); assay: immunoblot of serial deletion mutants of the beta chain as Fc fusion proteins
[4] = biological target: MG1-5 Fc fusion protein (human) (UniProt P01031); assay: as above

binding [1]: binds
binding [2]: binds
binding [3]: binds
binding [4]: binds
B1: HRA-06-H2-1 (antibody, human IgG2, kappa, V domains shown)
VH: EVQLVESGGGLVQPGGSLRLSCAASGFSFSGRYWIQWVRQAPGKGLEWVASVWPGITGDTNYANWAKGRFTISRDDSKNTLYLQMNSLRAEDTAVYYCAREPVAWGGGLDLWGQGTLVTVSS
VL: DIQMTQSPSSLSASVGDRVTITCQASQSINNQLSWYQQKPGKAPKLLIYYASTLASGVPSRFSGSGSGTDFTLTISSLQPEDFATYYCQGSYYSGGWDYGFGQGTKVEIKR
notes: also called anti-complement C5 antibody HRA-06-H2-1; C5 Antibody (HRA-06-H2-1)
